This is one part of the list. Many values rest on one well or one pass, so single values are uncertain.
System: Plasmodium berghei sporozoites
Experiment: residual sporozoite gliding motility relative to DMSO control; higher = less inhibition of motility
Conditions: 10 µM; incubation time 30 min

Residual sporozoite gliding motility, > 50%:
O=C(NNc1cc(N2CCCC2)nc(N2CCCC2)n1)c1ccccc1
CN(C)CCCNCc1ccc(-c2ccc(F)c(Cl)c2)o1
COc1cccc(Cn2c(Oc3ccccc3)nc3c2c(=O)n(C)c(=O)n3C)c1
O=C(Nc1cccc(C2=NCCN2)c1)Nc1cccc(C2=NCCN2)c1
CCOC(=O)C1=C(c2ccccc2)N=c2sc(=Cc3cc(C)n(-c4ccc(F)cc4)c3C)c(=O)n2C1c1cccc(OC)c1OC (stereo unspecified)
Cc1cc(C)c2c(c1)OCN(Cc1ccccc1Cl)C2
CCOc1ccc2nc(C)cc(Nc3ccc(Br)cc3)c2c1
COc1ccc(C)c2sc(N(Cc3cccnc3)C(=O)c3ccc(C#N)cc3)nc12
COc1cccc(C2(C)Nc3ccccc3-c3nc4ccccc4n32)c1 (stereo unspecified)
COc1ccc(C2Sc3ccccc3N=C3C2=C(O)c2ccccc23)cc1 (stereo unspecified)
COc1cc(OC)cc(C(=O)Nc2ccc(-c3nc4ccccc4[nH]3)cc2)c1
CCOc1c(Cl)cc(CNCC(O)c2ccccc2)cc1OC (stereo unspecified)
O=C(Cc1ccccc1)NC(c1ccc(Cl)cc1)c1c(O)ccc2ccccc12 (stereo unspecified)
COc1cc(SC)ccc1C(=O)N1CCCC(C)C1 (stereo unspecified)
COCCn1c(C)nc2ccccc2c1=O
Cc1ccc(N2C(=O)C3C(C2=O)C2(c4ccccc4)C(=O)C3(c3ccccc3)C(c3ccccc3)=C2c2ccccc2)cc1 (stereo unspecified)
N=c1n(CCN2CCCCC2)c2ccccc2n1CC(O)c1cccc(Br)c1 (stereo unspecified)
OC(Cn1nnc2ccccc21)Cn1c2ccc(Br)cc2c2cc(Br)ccc21 (stereo unspecified)
O=C(Nc1ccc(Cl)cc1)N1CCN(c2ccc3nncn3n2)CC1
COc1ccc(-c2c(C)nn3c(N)c(C#N)cnc23)cc1OC
CCOc1cc2c(cc1OCC)C(c1cc(OC)c(O)cc1Cl)NCC2 (stereo unspecified)
Fc1ccc2[nH]c3c(NCCCN4CCOCC4)ncnc3c2c1
COc1ccc(-c2cc3c(nn2)-c2ccccc2C3=O)cc1
COc1ccc2c(=O)cc(C(Cl)(Cl)Cl)oc2c1
Cc1cc(Nc2ccc(OCc3ccccc3)cc2)nc2cc(O)ccc12
Cc1cc(NC(=O)c2cccc(C(F)(F)F)c2)n(-c2nc(-c3ccc4c(c3)OCO4)cs2)n1
COc1ccc(-c2nonc2NC(=O)c2cccc(C)c2)cc1OC
OC(CNC1CCCCC1)Cn1c2ccc(I)cc2c2cc(I)ccc21 (stereo unspecified)
CCCCCC(=O)N1c2ccccc2N=C2CC(c3ccc(OC)c(OC)c3)CC(O)=C2C1c1ccc(C(F)(F)F)cc1 (stereo unspecified)
CN(C)c1ccc(N=Cc2ccc(N3CCOCC3)cc2)cc1
O=C(Nc1ccc(Br)cc1)Nc1cccc(Cl)c1
CCCCNc1nc(NC(C)(C)C)nc(NC(C)(C)C)n1
CN1CCN(c2nc(Nc3ccc(O)cc3)nc3ccccc23)CC1
O=C(NC1CCN(Cc2ccccc2)CC1)c1cc(C(=O)NC2CCN(Cc3ccccc3)CC2)cc(C(=O)NC2CCN(Cc3ccccc3)CC2)c1
COc1ccc(C2c3ccc4ccccc4c3Oc3ncn(CCCN(C)C)c(=N)c32)cc1 (stereo unspecified)
COc1ccc(-c2cn3c(C(=O)Nc4ccccc4Cl)c(-c4ccccc4)c4c3n2CCCC4)cc1

In the list so far, two contain a CF3 group:
Residual sporozoite gliding motility, > 50%:
Cc1cc(NC(=O)c2cccc(C(F)(F)F)c2)n(-c2nc(-c3ccc4c(c3)OCO4)cs2)n1
CCCCCC(=O)N1c2ccccc2N=C2CC(c3ccc(OC)c(OC)c3)CC(O)=C2C1c1ccc(C(F)(F)F)cc1 (stereo unspecified)
